Laboratory results from PubChem BioAssay (EPA / NIEHS).
Several values for one entry are separate records, joined by “and”; a condition that tells them apart may be missing. Equal entries are not always repeated. Inconclusive results, whose numbers are uncertain, are shown with a selection of clear calls. Potencies of inconclusive entries are doubtful fits and often do not repeat. A structure can be active in one record and inactive in another. Activity calls are given as the source filed them. How the source made its calls: active means hit-call score of the fitted dose curve at least 0.9, where 1 is the maximum; inconclusive means response in the unintended direction; inactive means score below 0.9.

Read-out: HMG-CoA synthase (HMGCS2), HMGCS2 (gene 3158)
Assay: CLD_HMGCS2_48hr: CellzDirect (CLD) Gene Expression Assay for HMG-CoA synthase (HMGCS2) at 48 hours (AID 2283711)
Procedure: CLD_48hr is a cell-based, multiplexed-readout assay that uses hepatocyte, a human liver primary cell, with measurements taken at 48 hours after chemical dosing in a 96-well plate.CLD_HMGCS2_48hr is one of 16 assay component(s) measured or calculated from the CLD_48hr assay. It is designed to make measurements of mRNA induction, a form of inducible reporter, as detected with chemiluminescence signals by Quantitative Nuclease Protection Assay (qNPA) technology.Data from the assay component CLD_HMGCS2_48hr was analyzed at the endpoint, CLD_HMGCS2_48hr, in the positive analysis fitting direction relative to DMSO as the negative control and baseline of activity. Using a type of inducible reporter, gain-of-signal activity can be used to understand changes in the reporter gene as they relate to the gene HMGCS2. Furthermore, this assay endpoint can be referred to as a primary readout. To generalize the intended target to other relatable targets, this assay endpoint is annotated to the lyase intended target family, where subfamily is HMG-CoA synthase.
Human hepatocyte cultures were treated daily for two consecutive days with fresh dosing solutions containing appropriate concentrations of the 320 ToxCast chemicals (chemical identities were blinded to CellzDirect and other ToxCast collaborators), vehicle control (0.2% DMSO), and positive control inducers as summarized in Table 1. Due to the large number of treatment groups and chemicals examined, the ToxCast chemicals were divided into two groups (spanning two independent cultures of hepatocytes from separate donor preparations (Hu778: ToxCast plates 1 and 2; Hu776: ToxCast plates 3 and 4). Each preparation of human hepatocyte cultures was treated with respective vehicle control, medium only control, set of six positive controls/reference chemicals for the five hepatic receptor pathways, and a subset of eight of the ToxCast chemicals (indoxacarb, pyrithiobac-sodium, norflurazon, cyhalofop-butyl, methomyl, thiram, acetochlor, and propiconazole). These replicate data, coupled with internal replicates designed within the blinded ToxCast chemical library, provided additional data to evaluate interindividual differences between hepatocyte preparations and their potential impact on chemical profiles.Cell morphology and integrity were evaluated using phase-contrast microscopy as an indicator of hepatocyte cell health (Tyson & Green, 1987). Cultures for each treatment group (i.e., media, vehicle [0.2% DMSO], positive control inducers [multiple concentrations], and the ToxCast chemicals [multiple concentrations]) were observed and cell morphology was assessed relative to vehicle control cultures at each harvest time point (0, 6, 24, or 48 h). […] Images were evaluated at the conclusion of the study to assess changes in cell integrity and account for the effects of chemical exposure on uncharacteristic changes in concentration-dependent gene expression profiles. The results from these determinations of apparent cytotoxicity were annotated (yes/no) alongside the corresponding qNPA data for reference.At the conclusion of each treatment period, hepatocyte cultures (96-well) were washed with 1 volume of HBSS, lysed by addition of 25 ul ArrayPlate lysis buffer (HTG, Tucson, AZ), and 70 ul/well of Denaturation Oil, denatured by incubation at 95C for 10 min, and frozen at approximately -70C until analysis by nuclease protection assay (qNPA) (Roberts et al., 2007). For qNPA analysis, cell lysates were thawed at 50C for approximately 30 min, qNPA probes were added, and samples were incubated at 95C for 10 min to begin the detection process by denaturing the target RNA, dissociating the duplexes and secondary structure hybridization. At the conclusion of the hybridization period, S1 nuclease reagent was added to each sample to digest all nonprotected nucleotides at 50C for 60-90 min. […]

SMILES | AC50 | outcome
CCC(=NOC/C=C/Cl)C1=C(O)CC(C2CCOCC2)CC1=O (stereo not given) | inconclusive: 0.0621 µM | –
O=C1c2ccccc2C(=O)N1SC(Cl)(Cl)Cl | inconclusive: 20 µM | –
COc1ccc(C(c2ccc(OC)cc2)C(Cl)(Cl)Cl)cc1 | inconclusive: 20 µM | –
CC1(C)C(C=C(Cl)Cl)C1C(=O)OC(C#N)c1cccc(Oc2ccccc2)c1 (stereo not given) | inconclusive: 20 µM | –
COP(=O)(OC)OC(Br)C(Cl)(Cl)Br (stereo not given) | inconclusive: 20 µM | –
COc1cc(OC)nc(NC(=O)NS(=O)(=O)c2ncccc2OCC(F)(F)F)n1 | – | inactive
CC[C@H](C)[C@H]1O[C@]2(C=C[C@@H]1C)C[C@@H]1C[C@@H](C/C=C(\C)[C@@H](O[C@H]3C[C@H](OC)[C@@H](O[C@H]4C[C@H](OC)[C@@H](NC)[C@H](C)O4)[C@H](C)O3)[C@@H](C)/C=C/C=C3\CO[C@@H]4[C@H](O)C(C)=C[C@@H](C(=O)O1)[C@]34O)O2 | – | inactive
C[C@H]1[C@H](c2ccc(Cl)cc2)SC(=O)N1C(=O)NC1CCCCC1 | inconclusive: 26.4 µM | –
Oc1cc(Cl)ccc1Oc1ccc(Cl)cc1Cl | active: 0.0058 µM | –
COC(=O)c1c(C(F)F)nc(C(F)(F)F)c(C2=NCCS2)c1CC(C)C | inconclusive: 4.84 µM | –
COP(=S)(OC)Oc1nc(Cl)c(Cl)cc1Cl | inconclusive: 20 µM | –
CCOC(=O)C(C)OC(=O)c1cc(Oc2ccc(C(F)(F)F)cc2Cl)ccc1[N+](=O)[O-] (stereo not given) | active: 0.241 µM | –
CCCN(CCC)c1c([N+](=O)[O-])cc(S(N)(=O)=O)cc1[N+](=O)[O-] | inconclusive: 35.3 µM | –
COc1cccc(C(=O)NN(C(=O)c2cc(C)cc(C)c2)C(C)(C)C)c1C | inconclusive: 3.97 µM | –
CC(C)N1C(=O)N(c2ccccc2)CSC1=NC(C)(C)C | inconclusive: 8.8 µM | –
CC[C@H](C)[C@H]1O[C@]2(C=C[C@@H]1C)C[C@@H]1C[C@@H](C/C=C(\C)[C@@H](O[C@H]3C[C@H](OC)[C@@H](O[C@H]4C[C@H](OC)[C@@H](O)[C@H](C)O4)[C@H](C)O3)[C@@H](C)/C=C/C=C3\CO[C@@H]4[C@H](O)C(C)=C[C@@H](C(=O)O1)[C@]34O)O2 (tested in a mixture with another compound) | inconclusive: 1.1 µM | –
CC(C)(C)c1ccc(CSc2cnn(C(C)(C)C)c(=O)c2Cl)cc1 | – | inactive
CNC(=O)Oc1cccc(N=CN(C)C)c1 | inconclusive: 0.000399 µM | –
Cc1c(F)c(F)c(COC(=O)C2C(/C=C(\Cl)C(F)(F)F)C2(C)C)c(F)c1F (stereo not given) | inconclusive: 0.00109 µM | –

In a second layout: results already given.
SMILES,AC50,outcome
CNC(=O)Oc1cccc(N=CN(C)C)c1,inconclusive: 0.000399 µM,–
Cc1c(F)c(F)c(COC(=O)C2C(/C=C(\Cl)C(F)(F)F)C2(C)C)c(F)c1F (stereo not given),inconclusive: 0.00109 µM,–

The listing continues.

SMILES | AC50 | outcome
CCOc1nc(F)cc2nc(S(=O)(=O)Nc3c(Cl)cccc3Cl)nn12 | – | inactive
COC(=O)C(C)Oc1ccc(Oc2ccc(Cl)cc2Cl)cc1 (stereo not given) | active: 35.6 µM | inactive
CCOC(=O)COc1cc(-c2nn(C)c(OC(F)F)c2Cl)c(F)cc1Cl | inconclusive: 20 µM | –
COc1ccc(-c2ccccc2)cc1NNC(=O)OC(C)C | – | inactive
CCN(CC)c1nc(C)cc(OP(=S)(OC)OC)n1 | inconclusive: 7.49 µM | –
CCCCNC(=O)OCC#CI | inconclusive: 20 µM | –
Cc1cc(C2CC2)nc(Nc2ccccc2)n1 | inconclusive: 0.094 µM | –
Clc1ccccc1-c1nnc(-c2ccccc2Cl)nn1 | – | inactive
COc1nc(C)nc(NC(=O)NS(=O)(=O)c2ccccc2CCC(F)(F)F)n1 | inconclusive: 14.8 nM and inconclusive: 3.97 µM | inactive
CSC1=N[C@@](C)(c2ccccc2)C(=O)N1Nc1ccccc1 | inconclusive: 7.57 µM | –
CON(C)C(=O)Nc1ccc(Cl)c(Cl)c1 | inconclusive: 20 µM | –
O=C1C2CC=CCC2C(=O)N1SC(Cl)(Cl)Cl (stereo not given) | inconclusive: 0.0004 µM | –
N#Cc1c(Cl)c(Cl)c(Cl)c(C#N)c1Cl | inconclusive: 2 µM | –
O=C(Nc1ccccc1)Nc1cnns1 | inconclusive: 20 µM | –
CCc1cnc(C2=NC(C)(C(C)C)C(=O)N2)c(C(=O)O)c1 (stereo not given) | – | inactive
CSc1nc(NC(C)C)nc(NC(C)C)n1 | inconclusive: 20 µM | –
Nc1c(Cl)c(F)nc(OCC(=O)O)c1Cl | – | inactive
COP(=S)(OC)Oc1ccc([N+](=O)[O-])cc1 | inconclusive: 0.00364 µM | –
N#Cc1nn(-c2c(Cl)cc(C(F)(F)F)cc2Cl)c(N)c1S(=O)C(F)(F)F (stereo not given) | inconclusive: 20 µM | –
